{"sequences": {"note": "Sequences of proteins named here, by UniProt entry; tags and fusion partners are left off. A change or cut given only in a name is not applied to a line headed by its entry.", "UniProt Q96ER3": "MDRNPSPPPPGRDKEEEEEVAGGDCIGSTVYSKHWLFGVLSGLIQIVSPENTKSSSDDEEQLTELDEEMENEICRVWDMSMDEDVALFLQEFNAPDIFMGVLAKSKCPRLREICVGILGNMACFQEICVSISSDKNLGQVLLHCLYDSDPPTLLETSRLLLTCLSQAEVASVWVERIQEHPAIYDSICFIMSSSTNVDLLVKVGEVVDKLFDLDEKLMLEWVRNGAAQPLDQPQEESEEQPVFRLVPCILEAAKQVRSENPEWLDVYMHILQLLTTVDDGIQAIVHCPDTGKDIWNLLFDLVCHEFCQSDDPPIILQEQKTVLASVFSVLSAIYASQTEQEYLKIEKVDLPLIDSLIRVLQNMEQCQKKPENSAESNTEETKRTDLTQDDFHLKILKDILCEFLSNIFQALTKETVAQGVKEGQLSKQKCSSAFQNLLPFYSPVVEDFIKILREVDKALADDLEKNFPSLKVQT", "UniProt Q96B01": "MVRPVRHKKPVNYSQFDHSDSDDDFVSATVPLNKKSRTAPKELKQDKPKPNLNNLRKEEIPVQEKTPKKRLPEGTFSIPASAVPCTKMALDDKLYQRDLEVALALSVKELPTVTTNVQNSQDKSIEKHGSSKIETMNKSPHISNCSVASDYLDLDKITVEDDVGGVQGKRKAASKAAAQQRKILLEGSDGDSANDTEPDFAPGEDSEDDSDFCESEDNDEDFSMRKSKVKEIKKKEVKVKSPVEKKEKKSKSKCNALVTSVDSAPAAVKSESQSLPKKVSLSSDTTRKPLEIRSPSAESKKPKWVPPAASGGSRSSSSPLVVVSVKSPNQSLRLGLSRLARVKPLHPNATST", "UniProt Q96EK5": "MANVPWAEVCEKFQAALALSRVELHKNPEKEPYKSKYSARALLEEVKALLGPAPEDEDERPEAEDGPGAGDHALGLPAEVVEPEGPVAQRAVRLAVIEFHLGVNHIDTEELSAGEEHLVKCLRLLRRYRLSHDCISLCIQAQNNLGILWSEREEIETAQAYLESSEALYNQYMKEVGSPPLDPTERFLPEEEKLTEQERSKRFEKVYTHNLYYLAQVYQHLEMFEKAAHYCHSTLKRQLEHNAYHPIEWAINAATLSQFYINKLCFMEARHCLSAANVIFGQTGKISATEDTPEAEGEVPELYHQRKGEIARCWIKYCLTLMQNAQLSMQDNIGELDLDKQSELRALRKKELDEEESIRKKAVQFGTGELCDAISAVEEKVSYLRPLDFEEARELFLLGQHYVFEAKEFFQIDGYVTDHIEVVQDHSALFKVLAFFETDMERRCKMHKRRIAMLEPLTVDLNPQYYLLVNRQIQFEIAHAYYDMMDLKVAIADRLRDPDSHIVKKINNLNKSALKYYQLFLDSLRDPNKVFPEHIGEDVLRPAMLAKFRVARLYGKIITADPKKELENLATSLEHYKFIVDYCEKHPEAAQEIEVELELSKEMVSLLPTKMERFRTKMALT", "UniProt Q92945": "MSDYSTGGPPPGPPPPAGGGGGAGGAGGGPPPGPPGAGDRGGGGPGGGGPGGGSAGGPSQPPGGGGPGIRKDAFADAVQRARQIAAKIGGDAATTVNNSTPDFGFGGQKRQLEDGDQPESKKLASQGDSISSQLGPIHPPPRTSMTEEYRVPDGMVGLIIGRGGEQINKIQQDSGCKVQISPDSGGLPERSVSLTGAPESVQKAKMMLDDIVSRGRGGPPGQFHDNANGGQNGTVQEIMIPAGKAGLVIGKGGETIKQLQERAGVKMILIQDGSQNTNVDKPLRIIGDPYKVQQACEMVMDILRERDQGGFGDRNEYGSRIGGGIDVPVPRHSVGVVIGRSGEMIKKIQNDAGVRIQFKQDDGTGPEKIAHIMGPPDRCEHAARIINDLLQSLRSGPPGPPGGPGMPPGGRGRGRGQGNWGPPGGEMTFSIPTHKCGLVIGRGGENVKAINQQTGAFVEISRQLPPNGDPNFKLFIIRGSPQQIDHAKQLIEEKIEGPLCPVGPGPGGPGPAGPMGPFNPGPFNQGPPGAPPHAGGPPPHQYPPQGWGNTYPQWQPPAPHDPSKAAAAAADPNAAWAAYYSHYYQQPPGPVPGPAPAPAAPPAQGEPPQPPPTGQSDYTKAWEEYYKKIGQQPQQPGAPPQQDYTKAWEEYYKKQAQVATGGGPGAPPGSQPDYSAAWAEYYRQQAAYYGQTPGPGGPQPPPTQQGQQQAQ", "UniProt Q93009, whole entry, looked up": "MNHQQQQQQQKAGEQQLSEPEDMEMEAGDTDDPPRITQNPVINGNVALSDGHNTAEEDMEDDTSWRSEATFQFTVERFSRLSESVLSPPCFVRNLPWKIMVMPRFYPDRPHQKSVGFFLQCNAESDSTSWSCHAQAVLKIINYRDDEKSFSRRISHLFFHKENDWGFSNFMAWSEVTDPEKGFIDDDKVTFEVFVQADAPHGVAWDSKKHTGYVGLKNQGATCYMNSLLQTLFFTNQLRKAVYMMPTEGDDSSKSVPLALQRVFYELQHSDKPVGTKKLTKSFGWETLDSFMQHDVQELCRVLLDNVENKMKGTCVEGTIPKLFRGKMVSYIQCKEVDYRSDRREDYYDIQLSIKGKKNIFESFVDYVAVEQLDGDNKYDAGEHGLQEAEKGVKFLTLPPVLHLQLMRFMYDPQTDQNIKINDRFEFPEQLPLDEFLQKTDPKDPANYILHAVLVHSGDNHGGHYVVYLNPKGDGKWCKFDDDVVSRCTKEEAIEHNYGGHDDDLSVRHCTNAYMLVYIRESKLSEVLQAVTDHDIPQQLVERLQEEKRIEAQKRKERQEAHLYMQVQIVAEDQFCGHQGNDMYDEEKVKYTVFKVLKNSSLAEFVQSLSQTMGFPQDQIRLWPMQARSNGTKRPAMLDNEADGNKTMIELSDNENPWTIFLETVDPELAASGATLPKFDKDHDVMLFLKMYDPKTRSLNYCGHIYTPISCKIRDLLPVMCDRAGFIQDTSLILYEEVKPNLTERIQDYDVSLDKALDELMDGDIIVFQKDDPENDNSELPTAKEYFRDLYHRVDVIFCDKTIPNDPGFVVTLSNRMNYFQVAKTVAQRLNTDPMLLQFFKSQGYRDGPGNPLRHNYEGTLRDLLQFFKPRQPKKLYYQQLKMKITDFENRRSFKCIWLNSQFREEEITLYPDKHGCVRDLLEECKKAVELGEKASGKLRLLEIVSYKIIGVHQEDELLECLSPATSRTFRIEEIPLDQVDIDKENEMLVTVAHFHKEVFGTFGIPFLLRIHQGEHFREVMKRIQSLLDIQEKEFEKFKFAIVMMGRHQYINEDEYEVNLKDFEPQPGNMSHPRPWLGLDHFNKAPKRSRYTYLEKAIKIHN", "UniProt Q93052": "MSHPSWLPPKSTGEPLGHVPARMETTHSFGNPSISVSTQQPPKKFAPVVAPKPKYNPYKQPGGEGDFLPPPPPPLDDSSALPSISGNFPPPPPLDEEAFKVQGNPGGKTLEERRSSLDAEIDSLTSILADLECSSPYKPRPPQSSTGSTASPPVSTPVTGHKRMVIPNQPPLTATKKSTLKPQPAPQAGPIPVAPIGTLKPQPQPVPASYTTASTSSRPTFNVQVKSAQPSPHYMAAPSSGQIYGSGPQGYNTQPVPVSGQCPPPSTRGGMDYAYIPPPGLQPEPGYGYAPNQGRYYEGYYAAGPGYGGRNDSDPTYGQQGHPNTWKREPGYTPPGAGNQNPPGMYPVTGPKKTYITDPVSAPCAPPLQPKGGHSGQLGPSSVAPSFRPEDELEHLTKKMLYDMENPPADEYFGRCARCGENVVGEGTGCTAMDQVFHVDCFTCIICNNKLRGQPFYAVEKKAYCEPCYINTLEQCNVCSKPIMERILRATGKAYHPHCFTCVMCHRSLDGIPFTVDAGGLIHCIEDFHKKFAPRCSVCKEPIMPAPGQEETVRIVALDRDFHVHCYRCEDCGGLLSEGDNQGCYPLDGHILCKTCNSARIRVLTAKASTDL", "UniProt Q92888": "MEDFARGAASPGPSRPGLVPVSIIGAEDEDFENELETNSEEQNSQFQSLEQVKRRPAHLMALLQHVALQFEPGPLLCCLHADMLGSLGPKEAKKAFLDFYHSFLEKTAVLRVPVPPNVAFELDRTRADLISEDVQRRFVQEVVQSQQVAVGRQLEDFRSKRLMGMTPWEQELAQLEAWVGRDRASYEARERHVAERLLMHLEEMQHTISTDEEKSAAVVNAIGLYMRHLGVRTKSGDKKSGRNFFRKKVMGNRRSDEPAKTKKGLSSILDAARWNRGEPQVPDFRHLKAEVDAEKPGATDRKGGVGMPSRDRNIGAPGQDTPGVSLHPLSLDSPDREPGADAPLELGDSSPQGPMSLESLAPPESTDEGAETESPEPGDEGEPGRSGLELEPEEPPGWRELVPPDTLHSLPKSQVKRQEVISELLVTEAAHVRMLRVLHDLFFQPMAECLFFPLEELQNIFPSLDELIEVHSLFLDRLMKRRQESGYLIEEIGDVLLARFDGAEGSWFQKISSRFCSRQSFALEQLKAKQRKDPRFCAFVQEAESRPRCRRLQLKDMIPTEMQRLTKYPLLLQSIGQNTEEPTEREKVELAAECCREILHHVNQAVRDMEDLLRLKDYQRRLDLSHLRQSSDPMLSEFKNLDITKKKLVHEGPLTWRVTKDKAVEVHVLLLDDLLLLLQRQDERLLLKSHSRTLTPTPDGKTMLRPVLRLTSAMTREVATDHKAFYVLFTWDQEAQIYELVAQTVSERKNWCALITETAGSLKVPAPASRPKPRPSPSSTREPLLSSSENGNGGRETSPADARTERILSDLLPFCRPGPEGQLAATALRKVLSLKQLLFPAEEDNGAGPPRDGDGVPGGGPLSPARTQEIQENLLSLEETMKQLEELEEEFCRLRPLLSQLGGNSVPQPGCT", "UniProt Q96CS3": "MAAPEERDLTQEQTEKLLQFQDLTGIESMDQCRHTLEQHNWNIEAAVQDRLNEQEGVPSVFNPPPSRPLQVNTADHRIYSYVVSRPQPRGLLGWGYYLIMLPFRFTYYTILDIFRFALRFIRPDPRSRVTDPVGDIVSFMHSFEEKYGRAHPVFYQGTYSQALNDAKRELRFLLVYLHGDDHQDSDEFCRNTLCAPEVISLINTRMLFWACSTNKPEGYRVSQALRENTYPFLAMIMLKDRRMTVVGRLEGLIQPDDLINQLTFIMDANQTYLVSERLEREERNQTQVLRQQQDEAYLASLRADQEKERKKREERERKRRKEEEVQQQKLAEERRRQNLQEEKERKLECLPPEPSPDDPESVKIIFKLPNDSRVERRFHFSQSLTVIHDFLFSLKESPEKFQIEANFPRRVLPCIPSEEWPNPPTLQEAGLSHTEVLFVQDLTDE", "UniProt Q969T7": "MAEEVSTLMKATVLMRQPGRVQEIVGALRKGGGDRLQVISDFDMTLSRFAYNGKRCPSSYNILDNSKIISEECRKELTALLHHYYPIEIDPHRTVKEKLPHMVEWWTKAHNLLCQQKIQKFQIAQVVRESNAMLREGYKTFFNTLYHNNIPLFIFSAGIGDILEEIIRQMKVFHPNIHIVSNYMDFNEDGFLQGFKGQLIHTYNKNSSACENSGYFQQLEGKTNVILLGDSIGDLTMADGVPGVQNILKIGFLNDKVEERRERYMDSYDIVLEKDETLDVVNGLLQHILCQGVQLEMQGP", "UniProt Q92543": "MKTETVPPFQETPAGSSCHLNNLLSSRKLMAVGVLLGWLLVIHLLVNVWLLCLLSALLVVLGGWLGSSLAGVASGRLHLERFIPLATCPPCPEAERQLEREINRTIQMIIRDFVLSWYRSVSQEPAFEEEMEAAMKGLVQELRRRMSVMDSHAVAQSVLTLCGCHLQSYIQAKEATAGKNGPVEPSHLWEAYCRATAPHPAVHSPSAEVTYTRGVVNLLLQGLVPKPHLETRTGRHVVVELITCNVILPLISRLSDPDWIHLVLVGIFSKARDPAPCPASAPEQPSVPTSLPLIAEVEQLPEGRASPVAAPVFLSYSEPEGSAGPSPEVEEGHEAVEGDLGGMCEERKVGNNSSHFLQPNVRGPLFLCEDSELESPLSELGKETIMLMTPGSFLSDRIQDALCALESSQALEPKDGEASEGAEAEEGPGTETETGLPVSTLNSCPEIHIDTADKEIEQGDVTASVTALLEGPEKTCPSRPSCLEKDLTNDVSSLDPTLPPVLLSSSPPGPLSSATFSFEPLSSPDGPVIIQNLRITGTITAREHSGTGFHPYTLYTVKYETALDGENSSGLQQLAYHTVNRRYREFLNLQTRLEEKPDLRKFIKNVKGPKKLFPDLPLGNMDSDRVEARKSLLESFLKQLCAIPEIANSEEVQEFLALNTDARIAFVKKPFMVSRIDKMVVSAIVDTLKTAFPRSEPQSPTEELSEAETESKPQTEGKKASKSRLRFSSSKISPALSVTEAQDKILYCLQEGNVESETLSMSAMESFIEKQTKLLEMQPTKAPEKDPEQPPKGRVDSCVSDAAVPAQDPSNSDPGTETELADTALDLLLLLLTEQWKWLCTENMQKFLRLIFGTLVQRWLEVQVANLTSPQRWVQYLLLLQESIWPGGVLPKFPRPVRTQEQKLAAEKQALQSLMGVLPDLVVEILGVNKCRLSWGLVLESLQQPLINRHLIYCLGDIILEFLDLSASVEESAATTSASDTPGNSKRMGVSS"}, "source": "the supplement of paper PMC11006884", "note": "This is a selection; strong and weak results do not stand in their true shares."}
{"compound": "COC(=O)C#Cc1ccccc1 [methyl 3-phenylpropiolate]", "experiment": "log2 ratio of iodoacetamide-alkyne labeling of the cysteine site, DMSO over compound (competition); higher = stronger covalent engagement of the cysteine by the compound, active = 1 or more", "conditions": "500 µM; treatment time 1 h; system: HEK293T cell lysate", "outline": "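For each cysteine, the log2 competition ratio is mean control-channel reporter intensity over mean compound-channel reporter intensity. HEK293T lysate (2 mg/mL) was exposed to vehicle or electrophile (500 µM, 1 h, ambient temperature), labelled with iodoacetamide alkyne (1 h), clicked to sCIP-TMT reagents, digested overnight with trypsin at 37 °C, streptavidin-enriched and analysed by Orbitrap Eclipse LC-MS/MS with FAIMS and FragPipe. Cysteines quantified in only one of three replicates, each with duplicate channels, were excluded.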"}
{"target": "UPF1 C531 (UniProt Q92900)", "log2 ratio of iodoacetamide-alkyne labeling": "inactive: -0.0182"}
{"target": "SAAL1 C248 (UniProt Q96ER3)", "log2 ratio of iodoacetamide-alkyne labeling": "inactive: 0.6"}
{"target": "RAD51AP1 C254 (UniProt Q96B01)", "log2 ratio of iodoacetamide-alkyne labeling": "inactive: 0.775"}
{"target": "ZNF592 C1221 (UniProt Q92610)", "log2 ratio of iodoacetamide-alkyne labeling": "inactive: 0.165"}
{"target": "ZNF503 C219 (UniProt Q96F45)", "log2 ratio of iodoacetamide-alkyne labeling": "inactive: 0.598"}
{"target": "UniProt Q96EK5_C371", "log2 ratio of iodoacetamide-alkyne labeling": "inactive: 0.247"}
{"target": "KHSRP C296 (UniProt Q92945)", "log2 ratio of iodoacetamide-alkyne labeling": "inactive: 0.00483"}
{"target": "RNF25 C360 (UniProt Q96BH1)", "log2 ratio of iodoacetamide-alkyne labeling": "active: 1.07"}
{"target": "MRPL53 C21 (UniProt Q96EL3)", "log2 ratio of iodoacetamide-alkyne labeling": "inactive: 0.057"}
{"target": "USP7 C510 (UniProt Q93009)", "log2 ratio of iodoacetamide-alkyne labeling": "inactive: 0.132"}
{"target": "LPP C262 (UniProt Q93052)", "log2 ratio of iodoacetamide-alkyne labeling": "inactive: 0.291"}
{"target": "TUBGCP3 C17 (UniProt Q96CW5)", "log2 ratio of iodoacetamide-alkyne labeling": "inactive: 0.523"}
{"target": "CREBBP C1199 (UniProt Q92793)", "log2 ratio of iodoacetamide-alkyne labeling": "inactive: 0.966"}
{"target": "UniProt Q92888_C911", "log2 ratio of iodoacetamide-alkyne labeling": "inactive: 0.441"}
{"target": "FAF2 C32 (UniProt Q96CS3)", "log2 ratio of iodoacetamide-alkyne labeling": "inactive: 0.0262"}
{"target": "KHSRP C176 (UniProt Q92945)", "log2 ratio of iodoacetamide-alkyne labeling": "inactive: 0.0409"}
{"target": "NT5C3B C210 (UniProt Q969T7)", "log2 ratio of iodoacetamide-alkyne labeling": "inactive: 0.461"}
{"target": "SNX19 C368 (UniProt Q92543)", "log2 ratio of iodoacetamide-alkyne labeling": "inactive: 0.355"}
{"target": "PHF3 C1631 (UniProt Q92576)", "log2 ratio of iodoacetamide-alkyne labeling": "inactive: 0.733"}
{"target": "NECTIN2 C446 (UniProt Q92692)", "log2 ratio of iodoacetamide-alkyne labeling": "inactive: 0.264"}
{"target": "UPF1 C683 (UniProt Q92900)", "log2 ratio of iodoacetamide-alkyne labeling": "inactive: -0.0544"}
{"target": "RAD50 C1302 (UniProt Q92878)", "log2 ratio of iodoacetamide-alkyne labeling": "inactive: 0.5"}
